These are yes or no findings as the source states them, for the method shown. Some entries that bind do so weakly or less than the wild type.
Biological target: T1, C-terminal EF-hand domain of human α-actinin-1 (third and fourth EF-hands, residues 824–892) (human) (UniProt P12814)
T1 sequence: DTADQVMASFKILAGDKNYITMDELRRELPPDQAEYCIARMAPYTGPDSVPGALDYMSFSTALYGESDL
Test: NMR titration; 15N-1H HSQC and constant-time 13C-1H HSQC of free versus peptide-bound 13C,15N-labelled ACTN_EF34 (0.5 mM); 1.5-fold excess of unlabelled C0 peptide; Ca2+-free; 20 mM Tris-d11 pH 7.5, 1 mM EDTA-d12, 1 mM DTT-d10; 302 K; 800 MHz; both purified

## peptide fragment of the GluN1 C0 domain (residues 841–865) from the NMDA receptor (from UniProt Q05586 841-865)
  binding: binds

From article PMC11511685
